Values of other authors in patent US8802148B2, “Microparticles and method for their production” (Alrise Biosystems GmbH, priority 2002, dated 2014).
At least one read-out could not be matched to a standard name with certainty. For at least one compound, name, drawing or mass did not settle the structure.

Details: values given e.g. in the Polymer Handbook

Structure (SMILES) | Solubility Parameter δ
C[S+](C)[O-] [dimethyl sulfoxide] | 12.0 (cal · cm^−3)^1/2
CCOC(C)=O [ethyl acetate] | 8.90 (cal · cm^−3)^1/2
CC(=O)OCC(C)C [isobutyl acetate] | 8.3 (cal · cm^−3)^1/2
CN1CCCC1=O [methyl-pyrrolidon-2 (N)] | 11.3 (cal · cm^−3)^1/2
CCCOC(C)=O [propyl acetate] | 8.8 (cal · cm^−3)^1/2

Same assay, conditions: values given e.g. in the Polymer Handbook; listed as DMSO

Structure (SMILES) | Solubility Parameter δ
C[S+](C)[O-] [dimethyl sulfoxide] | 13.04 (cal · cm^−3)^1/2
